Assay: in vivo
Conditions: male, Wistar, rat, po, 10 mg/kg

## COC(=O)C1=C(C)NC(C)=C(C(=O)OC)C1c1ccccc1[N+](=O)[O-] [nifedipine]
  half-life: 24.8 ± 38.5 h
MRT 0-24
  MRT last: 8.8 ± 0.9 h
